Results reported in PubChem BioAssay AID1508600 (Functional Genomics Laboratory (NCATS/FGL), 2020).
Hit rate of the full screen: of about 53,000 sequences, about 3,700 (7%) were called active.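 The calls were made as follows: active = gene knockdowns whose robust z-score for IL-1 alpha signal is at least 2 or at most -2, so actives lie on both sides; inactive = the rest.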 The list shows a part of the results.

assay: Components of the Cytosolic LPS Sensing Pathway: Gene Identification via Genome-wide siRNA Screen; details: RAW264.7 macrophages, IL-1a HTRF, actives lie on both sides, screened at 100 nM (by protocol), cells primed 5 h with Pam3CSK4 first;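 also: robust z of the log signal after scaling to non-targeting control siRNA wells of the plate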
Method in brief: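 Read-out: IL-1a HTRF on supernatant, divided by plate negative-control median ×100, log-transformed and converted to robust z-score. Cells were RAW264.7 given 100 nM siRNA, Pam3CSK4-primed 5 hours, then LipidA-transfected 24 hour.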

z-score, active:
GGAGCUGAGCAGUGAUGAATT against Snx29 -2.08
CCGAGAUUGCCUGUUUGGUTT against Rnf144b 2.08
GGUUUGAGAGUGGUAAUCUTT against Agbl3 2.17
GCUCAACUUCUGAAUUAUATT against Enpep 2.64
CCCUUCUCCACCUGAGAGUTT against Orm3 -2.25
GAGCUAAGCAAGAUGCUAGTT against Sox17 3.97
GGAUAUGAACAAUAGCAUATT against Kcna1 2.2
GGAUUCCUCUAACACAUUUTT against Keg1 2.07
GGCAGUGGUUAAAGGUUCCTT against Lrp6 2.27
GCUCUCGUAGACUGCUAUATT against Ppp1r14c 2.13

z-score, inactive:
GCCAUGAAUAUUGUGCGAATT against Hikeshi 0.465
GGCCUACAAUACCUCCAUUTT against Grid2ip 1.12
GGACUCCUAUCCAUCUAUGTT against Panx3 -0.571
CCCUAAGGUGGCAGAAAUCTT against Atp1a2 -1.49
GGCCAUAUUAAGUAUGGAGTT against Fam118a -0.34
GGCCUUUCAAUGUUACAGATT against Mpo -0.186
GCUGAAAGGAAUGUGCUCATT against Hspa8 -1.57
GGUGGUGAUAAUUGUUUUUTT against Olfr1497 -1.02
GGCAGCUCUGACUUUAUAATT against Klhdc3 -1.63
GGCUCUGGCUAAGUACUUGTT against Cenpb -0.943
GGGACAGUUGACUUUUUAUTT against Cntn4 0.147
GCGGUAUGAUCUAGUAGUGTT against Zfp672 0.0856
GGCAAAUUAAAGACAAAUCTT against 9530009G21Rik 1.81
UUGAAAUGCCUCGUUCUUUTT against Wfdc13 0.395
GGACCAGGUUUGUUUUUUATT against Stom 1.03
GGUUUGAAGUGUUGACAUUTT against Fam126a -0.474
GGAAUAAAGGAACUGAAUCTT against Plek -0.235
GGACUUUUCUCUCCACCACTT against Slc22a26 -1.43
GGCUUUUCUGCCAUUUAUGTT against Sox18 0.23
GGUGAAAAUCAAGCUGAAUTT against Smarca2 1.36
CCUUCAUAUCCCAGUAAAATT against Tmem230 -1.48
UCGGGAAAUGAAAUGUUGCTT against Crh -0.887
AGUCUCACCAGCAACGCACTT against 4930451E10Rik -0.305
GGGAAGUUUGGUUCUUUGGTT against Msn 0.749
GCAAAAGGAAACGAUCUCATT against Fbxo43 -0.302
GGGUUAGAUUUAGUCAAUGTT against Haspin 0.969
GGCCAGAUGCAGUCUGUGUTT against Slx1b 0.118
CCUACGAAGAAGAAGAGAUTT against Zbtb7b 0.342
GCAGCAGUUUUGUAGACAUTT against Fbxo25 0.0918
GGAAGAACUUCUGUUCAUGTT against Krt18 0.634
GCUGGUGUGUAACAUCAAUTT against Fut8 0.246
GGACAGUCGAAUUUCAGUCTT against Olfr417 1.48
CCACUGAAGUUUUCAUUCUTT against Olfr1055 0.355
GGUUGAAUCAGAAAAAUUCTT against Gbp3 -1.08
GGUAUAGAGAGUUCGUGUGTT against Snx10 -1.06
CGGCCUCUUCUGGUUGUUGTT against Retreg2 -0.786
GGAGAAAGCCAAGAAGAAUTT against Cfap206 -0.0723
GCAUAUAACCGAGUUGAUUTT against Cdcp1 0.183
GGACAGACACAAGAUGAGATT against Khdc4 0.315
GGCUCAAGCAUUAAUUAAUTT against Myo5c 0.0919
GGGAUCGCUGUAUAGAAAUTT against Chdh 0.43
GCGAGAUUCUUAAAGAAAUTT against Brdt 0.645
GGCUUUGUAGCGAUAACAATT against D930030D11Rik -0.936
GGCUGAAGAUGGAAACAUCTT against Gtpbp2 -1.91
GGAGUAUGAUUCAGAAAUGTT against Scn11a -0.607
GCAGAUCUGCGUCAAUGCUTT against Scube1 -0.528
GGGAAGUUUCUUGAAGCACTT against Rfxank 0.103
GCCGCUUAGAGGCUCAUCUTT against Nfe2l2 -1.86
CCAAAUUUUACUGCACGUGTT against Nol11 0.305
GCGAGAAAUUACCACCUUCTT against Klhl8 -0.516
GCGGAGAAUAACAUAUCUCTT against Fut8 -0.521
UCCCAACUCCUAAAGAUCGTT against F730035P03Rik -0.102
GGACAUCCGUCCCUAUAUCTT against Zfp366 0.00789
CCAUGAGGAUGAUUACCUATT against Cnga2 -0.947
GGAAAAUCAUGGGAGCCUUTT against Lpo -0.435
CGCACUGGAUAAUAUCAGCTT against Dok5 0.0135
GCACGGCCCUACUUUAUAGTT against Trim33 -1.43
GGAAAAAGGCUUUUGGGACTT against Olfr135 0.653
CGAAAGUUACUCAUAGAGATT against Itga6 -0.143
GGCGAGAACAGUUUGAGUUTT against Ttll13 0.96
CGGUUGUCUUCCUCUUAGUTT against Fzd5 -0.52
CCUUUAUACCCAAUACCUATT against Atxn2 0.234
GGUUGAUAAAGGAGCCAUCTT against Mcts1 1.02
GGCUCCUGUGCAUAUCUAATT against Olfr116 -0.449
GGUGACCCACUACUGUAAGTT against Trim46 0.373
GGUUACGUUGUACGAAAUCTT against Nt5c1b 1.49
GGUACGAUCACUCCAAAACTT against Clk1 0.537
GGAACUACCUUGAAGAGGATT against Tmem59 -0.844
GGAAGUAAGGAAAUCAAAATT against Gspt2 0.66
GGAAACAGAGAAGAUCAUUTT against Kif1a -0.397
GGAAUGAAUAAAGCUACUUTT against Fah -0.799
GGUAGCAUAGGCUAGCAUATT against Crcp 0.0494
CCGACAGCACUUGUCUUGATT against Fbxo4 -0.244
GGUGUUCUUCACUGACUACTT against Lrp1 0.574
GCAGUUAUUCAAAUUUGCCTT against Keg1 -0.551
CUAUGACACUUGGUUCCAUTT against Nxpe5 1.69
GGCAAAAUGGUUUUUUGUUTT against Hepacam2 -0.239
CCUUUUCAAGCUAACAACATT against Gba2 -0.0808
GGAAAUGACUCUCUAUGGCTT against Cyp4f13 -1.15
CCAAUAAAAUUGGUGUUCCTT against H13 0.18
GCAUAGUCAAGGUCAGAUCTT against Gpr107 -0.00643
GGAAGUCGACCUUAUAGUUTT against Hhipl2 0.5
GCAGUAUAUCCUACAUUGGTT against Olfr510 1.3
GCAAAAGUUAACGAUUUCCTT against Wdr41 1.67
CCUUAGCCACUUUUUGGCCTT against Dhrsx 0.867
CCAAUUGUGAAGAUGUUUGTT against Eif3e -1.21
GCAUAUUGGCUCAUCCUUUTT against Anapc2 -0.383
GCGAAUUCGUGAGAAGAGCTT against Ripk4 -0.884
GGAAUCGAGAAUUACUACGTT against Tspan15 -0.353
GGGUGUGAAGGAGUUCAAGTT against Zfp710 1.34
GGUGACCUUACCUAAUGUATT against Mettl18 0.578
GGACUACUGAAUUCUUUUATT against Nectin2 -1.06
UGAAGAAUAAGGAACUCAUTT against AA467197 1.69
GGGAAGACCAUUUUUAAAUTT against Zfp78 1.91
GGUGCUUUGCUCUUUCUUGTT against Mrfap1 0.311
GGACACAGACACCAAACAATT against Kat2a -1.71
GGAAGAUUUAGGUUCUACUTT against Def8 1.43

No new results follow: an excerpt of the list.
z-score, inactive:
GGGAUCGCUGUAUAGAAAUTT against Chdh 0.43
GCGAGAUUCUUAAAGAAAUTT against Brdt 0.645
GGCUUUGUAGCGAUAACAATT against D930030D11Rik -0.936
GGCUGAAGAUGGAAACAUCTT against Gtpbp2 -1.91
GGAGUAUGAUUCAGAAAUGTT against Scn11a -0.607
GCAGAUCUGCGUCAAUGCUTT against Scube1 -0.528
